PMC11078644, “Nesprin-2 is a novel scaffold protein for telethonin and FHL-2 in the cardiomyocyte sarcomere” (The Journal of Biological Chemistry, 2024)
Results are given in words; binding and its absence hold for the method and conditions named. For some of these results: Binding seen in cells or lysates may run through a third protein. Some results given as binding are weak or reduced against the parent protein; the word gives no strength. For some of these results: Sequences can lack the tags named with a protein.

T1: Nesprin-2 SR52-53 (amino acids 6136-6354 of the full length of nesprin-2 giant), yeast two-hybrid bait (human) (UniProt Q8WXH0)
T1 sequence: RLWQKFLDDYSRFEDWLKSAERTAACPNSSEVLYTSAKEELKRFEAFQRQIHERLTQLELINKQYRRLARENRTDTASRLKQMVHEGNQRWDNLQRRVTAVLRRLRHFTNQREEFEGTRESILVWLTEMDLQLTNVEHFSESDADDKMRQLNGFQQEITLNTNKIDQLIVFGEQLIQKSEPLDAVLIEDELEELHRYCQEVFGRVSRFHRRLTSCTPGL

T2: GST-nesprin-2 SR51-53 (amino acids 6018-6354) (human) (UniProt Q8WXH0)
T2 sequence: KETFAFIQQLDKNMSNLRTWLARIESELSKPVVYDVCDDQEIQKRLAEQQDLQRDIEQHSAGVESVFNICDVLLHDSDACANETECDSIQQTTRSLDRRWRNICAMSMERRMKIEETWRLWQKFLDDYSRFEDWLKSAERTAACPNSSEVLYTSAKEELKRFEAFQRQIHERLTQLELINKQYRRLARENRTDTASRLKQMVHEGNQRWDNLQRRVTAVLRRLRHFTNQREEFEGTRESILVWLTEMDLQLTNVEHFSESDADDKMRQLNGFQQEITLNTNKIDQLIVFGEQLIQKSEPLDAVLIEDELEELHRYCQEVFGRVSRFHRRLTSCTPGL

T3: GST-nesprin-2 SR51-53 T6211M (human) (UniProt Q8WXH0)
T3 sequence: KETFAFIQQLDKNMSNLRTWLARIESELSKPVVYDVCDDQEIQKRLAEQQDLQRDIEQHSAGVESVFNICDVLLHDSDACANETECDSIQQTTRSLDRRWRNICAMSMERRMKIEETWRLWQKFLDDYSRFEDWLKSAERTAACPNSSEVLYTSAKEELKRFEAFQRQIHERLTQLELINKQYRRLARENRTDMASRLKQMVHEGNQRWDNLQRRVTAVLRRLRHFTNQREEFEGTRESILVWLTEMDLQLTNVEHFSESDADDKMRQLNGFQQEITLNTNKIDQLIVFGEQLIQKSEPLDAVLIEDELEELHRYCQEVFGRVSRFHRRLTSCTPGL

T4: His-tagged full-length telethonin (recombinant, WT) (UniProt O15273)
T4 sequence: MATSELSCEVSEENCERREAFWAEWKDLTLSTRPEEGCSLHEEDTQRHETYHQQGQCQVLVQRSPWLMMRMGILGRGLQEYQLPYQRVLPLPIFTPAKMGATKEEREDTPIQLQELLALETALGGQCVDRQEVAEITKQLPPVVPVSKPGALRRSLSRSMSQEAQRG

T5: GST nesprin-2 CT (SR51-56, amino acids 6018-6781, without KASH) (human) (UniProt Q8WXH0)
T5 sequence: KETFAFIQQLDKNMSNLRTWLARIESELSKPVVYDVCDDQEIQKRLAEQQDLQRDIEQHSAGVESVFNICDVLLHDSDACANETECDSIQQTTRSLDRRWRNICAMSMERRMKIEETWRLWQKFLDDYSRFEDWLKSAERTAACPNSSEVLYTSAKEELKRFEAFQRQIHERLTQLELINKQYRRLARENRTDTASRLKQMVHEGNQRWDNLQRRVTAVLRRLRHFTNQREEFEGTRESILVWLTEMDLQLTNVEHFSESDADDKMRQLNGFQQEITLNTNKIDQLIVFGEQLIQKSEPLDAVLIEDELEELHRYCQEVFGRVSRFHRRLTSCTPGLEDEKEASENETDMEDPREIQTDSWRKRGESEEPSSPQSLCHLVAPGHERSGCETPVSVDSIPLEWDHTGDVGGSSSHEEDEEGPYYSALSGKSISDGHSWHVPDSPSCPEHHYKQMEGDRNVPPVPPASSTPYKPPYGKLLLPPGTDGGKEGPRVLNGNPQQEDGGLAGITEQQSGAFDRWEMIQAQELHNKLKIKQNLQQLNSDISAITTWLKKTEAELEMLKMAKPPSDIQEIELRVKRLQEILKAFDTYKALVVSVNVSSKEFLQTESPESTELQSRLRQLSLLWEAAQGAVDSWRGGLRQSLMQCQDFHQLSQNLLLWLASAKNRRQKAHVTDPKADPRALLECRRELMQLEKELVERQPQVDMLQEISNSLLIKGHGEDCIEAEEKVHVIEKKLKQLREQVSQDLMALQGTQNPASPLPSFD


Key:
[1] = biological target: T1, Nesprin-2 SR52-53 (amino acids 6136-6354 of the full length of nesprin-2 giant), yeast two-hybrid bait (human); experiment: two-hybrid; screen of a human cardiac muscle cDNA library (pACT2) with nesprin-2 SR52-53 and SR54-56 baits in yeast strain AH109; colony re-screening
[2] = biological target: T2, GST-nesprin-2 SR51-53 (amino acids 6018-6354) (human); experiment: pull-down; GST-nesprin-2 on glutathione-Sepharose 4B beads; 1 ug purified HA- or His-telethonin recombinant protein (with or without PKD pre-treatment) with 50 ul beads, 2 h, 4 °C; Western blot; both purified
[3] = biological target: T3, GST-nesprin-2 SR51-53 T6211M (human); experiment: as above
[4] = biological target: T4, His-tagged full-length telethonin (recombinant, WT); experiment: native gel or EMSA; Native Page Novex gel; the two His-tagged proteins purified separately, mixed at increasing molar ratios of nesprin:telethonin in PBS with 0.3% Sarcosyl, 20 min, room temperature; blot with telethonin antibody; both purified
[5] = biological target: T5, GST nesprin-2 CT (SR51-56, amino acids 6018-6781, without KASH) (human); experiment: pull-down; GST-nesprin-2 beads incubated with GFP-tagged FHL-2 proteins; Western blot
[6] = biological target: T2, GST-nesprin-2 SR51-53 (amino acids 6018-6354) (human); experiment: as above
[7] = biological target: T3, GST-nesprin-2 SR51-53 T6211M (human); experiment: as above

binding [2] | Binder | other results
 | telethonin, full-length clones from a human cardiac muscle cDNA library (yeast two-hybrid prey) (protein, UniProt O15273 1-167) MATSELSCEVSEENCERREAFWAEWKDLTLSTRPEEGCSLHEEDTQRHETYHQQGQCQVLVQRSPWLMMRMGILGRGLQEYQLPYQRVLPLPIFTPAKMGATKEEREDTPIQLQELLALETALGGQCVDRQEVAEITKQLPPVVPVSKPGALRRSLSRSMSQEAQRG | binding [1]: binds
binds | His-tagged full-length telethonin (recombinant, WT) (protein, UniProt O15273 1-167) MATSELSCEVSEENCERREAFWAEWKDLTLSTRPEEGCSLHEEDTQRHETYHQQGQCQVLVQRSPWLMMRMGILGRGLQEYQLPYQRVLPLPIFTPAKMGATKEEREDTPIQLQELLALETALGGQCVDRQEVAEITKQLPPVVPVSKPGALRRSLSRSMSQEAQRG | binding [3]: binds
binds | His-tagged telethonin R153H, without PKD pre-treatment (protein, UniProt O15273 1-167) MATSELSCEVSEENCERREAFWAEWKDLTLSTRPEEGCSLHEEDTQRHETYHQQGQCQVLVQRSPWLMMRMGILGRGLQEYQLPYQRVLPLPIFTPAKMGATKEEREDTPIQLQELLALETALGGQCVDRQEVAEITKQLPPVVPVSKPGALHRSLSRSMSQEAQRG | 
binds weakly | HA-tagged telethonin S161A, pre-treated with PKD (protein, UniProt O15273 1-167, phosphorylated by PKD in vitro (Ser-157 left as site)) MATSELSCEVSEENCERREAFWAEWKDLTLSTRPEEGCSLHEEDTQRHETYHQQGQCQVLVQRSPWLMMRMGILGRGLQEYQLPYQRVLPLPIFTPAKMGATKEEREDTPIQLQELLALETALGGQCVDRQEVAEITKQLPPVVPVSKPGALRRSLSRSMAQEAQRG | 
binds | HA-tagged telethonin S157A/S161A double mutant, purified recombinant protein (protein, UniProt O15273 1-167) MATSELSCEVSEENCERREAFWAEWKDLTLSTRPEEGCSLHEEDTQRHETYHQQGQCQVLVQRSPWLMMRMGILGRGLQEYQLPYQRVLPLPIFTPAKMGATKEEREDTPIQLQELLALETALGGQCVDRQEVAEITKQLPPVVPVSKPGALRRSLARSMAQEAQRG | 
binds | HA-tagged telethonin WT, purified recombinant protein, without PKD pre-treatment (protein, UniProt O15273 1-167) MATSELSCEVSEENCERREAFWAEWKDLTLSTRPEEGCSLHEEDTQRHETYHQQGQCQVLVQRSPWLMMRMGILGRGLQEYQLPYQRVLPLPIFTPAKMGATKEEREDTPIQLQELLALETALGGQCVDRQEVAEITKQLPPVVPVSKPGALRRSLSRSMSQEAQRG | 
binds | HA-tagged telethonin S157A, purified recombinant protein, without PKD pre-treatment (protein, UniProt O15273 1-167) MATSELSCEVSEENCERREAFWAEWKDLTLSTRPEEGCSLHEEDTQRHETYHQQGQCQVLVQRSPWLMMRMGILGRGLQEYQLPYQRVLPLPIFTPAKMGATKEEREDTPIQLQELLALETALGGQCVDRQEVAEITKQLPPVVPVSKPGALRRSLARSMSQEAQRG | 
binds weakly | HA-tagged telethonin S157A, pre-treated with PKD (protein, UniProt O15273 1-167, phosphorylated by PKD in vitro (Ser-161 left as site)) MATSELSCEVSEENCERREAFWAEWKDLTLSTRPEEGCSLHEEDTQRHETYHQQGQCQVLVQRSPWLMMRMGILGRGLQEYQLPYQRVLPLPIFTPAKMGATKEEREDTPIQLQELLALETALGGQCVDRQEVAEITKQLPPVVPVSKPGALRRSLARSMSQEAQRG | 
binds | HA-tagged telethonin S161A, purified recombinant protein, without PKD pre-treatment (protein, UniProt O15273 1-167) MATSELSCEVSEENCERREAFWAEWKDLTLSTRPEEGCSLHEEDTQRHETYHQQGQCQVLVQRSPWLMMRMGILGRGLQEYQLPYQRVLPLPIFTPAKMGATKEEREDTPIQLQELLALETALGGQCVDRQEVAEITKQLPPVVPVSKPGALRRSLSRSMAQEAQRG | 
 | nesprin-2 SR51-53 (no tag), co-expressed with His-telethonin (domain or fragment, human, UniProt Q8WXH0 6018-6354, looked up, nesprin-2 giant, human, spectrin repeats 51-53, amino acids 6018-6354 of the full length of nesprin-2 giant; in CDF DUET-1 without a tag; printed mass 40.51 kDa; source: E. coli BL21(DE3)pLysS, co-expressed with His-telethonin, co-purified (His-trap, SEC)) KETFAFIQQLDKNMSNLRTWLARIESELSKPVVYDVCDDQEIQKRLAEQQDLQRDIEQHSAGVESVFNICDVLLHDSDACANETECDSIQQTTRSLDRRWRNICAMSMERRMKIEETWRLWQKFLDDYSRFEDWLKSAERTAACPNSSEVLYTSAKEELKRFEAFQRQIHERLTQLELINKQYRRLARENRTDTASRLKQMVHEGNQRWDNLQRRVTAVLRRLRHFTNQREEFEGTRESILVWLTEMDLQLTNVEHFSESDADDKMRQLNGFQQEITLNTNKIDQLIVFGEQLIQKSEPLDAVLIEDELEELHRYCQEVFGRVSRFHRRLTSCTPGL | binding [4]: binds
 | GFP-tagged FHL-2 WT (protein, UniProt Q14192 1-279) MTERFDCHHCNESLFGKKYILREESPYCVVCFETLFANTCEECGKPIGCDCKDLSYKDRHWHEACFHCSQCRNSLVDKPFAAKEDQLLCTDCYSNEYSSKCQECKKTIMPGTRKMEYKGSSWHETCFICHRCQQPIGTKSFIPKDNQNFCVPCYEKQHAMQCVQCKKPITTGGVTYREQPWHKECFVCTACRKQLSGQRFTARDDFAYCLNCFCDLYAKKCAGCTNPISGLGGTKYISFEERQWHNDCFNCKKCSLSLVGRGFLTERDDILCPDCGKDI | binding [5]: binds; binding [6]: binds; binding [7]: binds
 | GFP-FHL-2 R113C mutant (protein, UniProt Q14192 1-279) MTERFDCHHCNESLFGKKYILREESPYCVVCFETLFANTCEECGKPIGCDCKDLSYKDRHWHEACFHCSQCRNSLVDKPFAAKEDQLLCTDCYSNEYSSKCQECKKTIMPGTCKMEYKGSSWHETCFICHRCQQPIGTKSFIPKDNQNFCVPCYEKQHAMQCVQCKKPITTGGVTYREQPWHKECFVCTACRKQLSGQRFTARDDFAYCLNCFCDLYAKKCAGCTNPISGLGGTKYISFEERQWHNDCFNCKKCSLSLVGRGFLTERDDILCPDCGKDI | binding [6]: binds
 | FHL-2 amino acids 85 to 279, clones from a human cardiac muscle cDNA library (yeast two-hybrid prey) (domain or fragment, UniProt Q14192 85-279) DQLLCTDCYSNEYSSKCQECKKTIMPGTRKMEYKGSSWHETCFICHRCQQPIGTKSFIPKDNQNFCVPCYEKQHAMQCVQCKKPITTGGVTYREQPWHKECFVCTACRKQLSGQRFTARDDFAYCLNCFCDLYAKKCAGCTNPISGLGGTKYISFEERQWHNDCFNCKKCSLSLVGRGFLTERDDILCPDCGKDI | binding [1]: binds
